Cell number change and AC50 data for 37 compounds are collected here from PubChem BioAssay AID2685 (National Center for Advancing Translational Sciences (NCATS), 2010).

Values joined by “and” are separate entries in the source; they are usually repeats but may differ in a detail not shown here. Equal values may be shown once. This is one part of the list. Further columns of the screen follow, without active or inactive calls. Compounds called inactive in the main read-out are mostly missing here. Potencies come from curve fits of mixed quality, noted in brackets.

The assay in a line: qHTS Assay for Lipid Storage Modulators in Drosophila S3 Cells.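 As to Cell number change: cells counted by Cell Tracker Red CMTPX staining in the red channel.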 The following applies: BODIPY lipid droplet fluorescence, 18-24 h; for cell number change: measured here: cell count max response, cells fed with added oleic acid. Put shortly:
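Drosophila S3 cells loaded with oleic acid (400 uM, as added) and compounds at several concentrations; lipid droplets imaged by 488-nm laser-scanning cytometry, 500–530 nm intensity and object ratio to cell channel. Percent activity normalized to 20 uM Triacsin C.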

[1] abbreviates: measured here: lipid fluorescence (Fed channel) AC50, cells fed with added oleic acid.
Setting [2] is: measured here: cell number channel AC50, cells fed with added oleic acid.

Regarding `CCOc1ccc(CCNC(=O)COC(=O)C2CCN(c3ccc(C(F)(F)F)cn3)CC2)cc1OCC`, the cell number change came to 0.314%. The AC50 under setting [1] is 16.4 µM [falling, single point].

Take `c1ccc2c(c1)sc1nnnn12`: the cell number change is -17.3%. Further, the AC50 under setting [2] is 0.651 µM [falling, full curve, poor fit]. For the same compound, the AC50 under setting [1] was 0.461 µM [falling, single point].

Consider `COc1ccc(Nc2cc(C)nc(NCc3ccccc3)n2)cc1`, for which the cell number change was -33.6%. Further, the AC50 under setting [2] was 16.4 µM [falling, single point]. Also, under setting [1], the AC50 is 23.1 µM [falling, single point].

Regarding `CCCCNC(=O)Nc1nnc(-c2ccc(Cl)cc2)o1`, the cell number change is -6.18%. Besides, the AC50 under setting [1] is 0.0206 µM [rising, full curve, poor fit].

In the case of `O=S(=O)(NC1=NCCCCC1)c1ccc2ccccc2c1`, the cell number change is 18%.

In the case of `Cc1cnn(C(=O)c2cc(-c3ccccc3)nc3ccccc23)c1`, the cell number change was -97.8%. In addition, under setting [2], the AC50 is 32.6 µM [falling, partial curve, poor fit].

Take `Nc1ccc(C(=O)OCC(=O)Nc2ccc3c(c2)OCO3)cc1[N+](=O)[O-]`: the cell number change was determined as 20%.

On to `Cc1ccc(S(=O)(=O)N2CCN(C(=O)COC(=O)Cc3ccc(Cl)cc3)CC2)c(C)c1`, for which the cell number change turned out to be 2.34%. Besides, the AC50 under setting [1] is 25.9 µM [rising, partial curve, poor fit].

With `CCN(CC)S(=O)(=O)c1ccc(N2CCCCC2)c(NC(=O)C2CCN(C(=O)c3ccc(F)cc3)CC2)c1`, the cell number change is 36.9%. The AC50 under setting [2] is 1.64 µM [rising, partial curve].

Regarding `COc1ccc(OC)c(C(c2nnnn2C2CCCC2)N2CCN(c3ccccc3F)CC2)c1` (stereo not drawn), the cell number change is 25.5%. The AC50 under setting [2] is 4.11 µM [rising, full curve, poor fit].

On to `Cc1cc(C(=O)N2C(C)CCCC2C)no1` (stereo not drawn), for which the cell number change turned out to be 19.6%.

For `O=C(CN1C(=O)S/C(=C\c2ccc(O)c([N+](=O)[O-])c2)C1=O)Nc1ccc(N2CCOCC2)cc1`, the cell number change was -14.2%. Moreover, the AC50 under setting [2] was 0.651 µM [falling, full curve, poor fit].

With `O=C(O)c1n[nH]c2ccccc12`, the cell number change is -97.1%. Also, the AC50 under setting [2] is 29.1 µM [falling, partial curve]. Further, the AC50 under setting [1] is 20.6 µM [falling, partial curve].

`CC1CCN(CC(=O)NC2CCCCC2)CC1`: the cell number change is 16.1%.

`O=C(NCC1CCCCC1)c1ccc(Br)o1`: the cell number change was -13%. Also, the AC50 under setting [1] was 29.1 µM [falling, single point].

Consider `O=S(=O)(Nc1nc2ccccc2nc1NCc1ccco1)c1ccccc1`, for which the cell number change was -6.71%. Moreover, the AC50 under setting [1] is 4.61 µM [rising, full curve].

For the compound `COc1cc2c(cc1OC)C(C(=O)N1CCN(c3ccccc3)CC1)C(c1cccs1)N(C)C2=O` (stereo not drawn), the cell number change was -6.18%. The AC50 under setting [1] was 6.51 µM [falling, single point].

Consider `O=C(NCCc1c[nH]c2ccccc12)C(=O)NCC1OCCN1S(=O)(=O)c1ccc(F)cc1` (stereo not drawn), for which the cell number change was found to be 0.886%. Under setting [2], the AC50 is 0.651 µM [rising, full curve, poor fit]. Under setting [1], the AC50 was 1.03 µM [rising, full curve].

Regarding `COc1ccccc1CCC(=O)Nc1ccc(OC)c(S(=O)(=O)N2CCCCC2)c1`, the cell number change was -11.1%. Under setting [2], the AC50 is 6.51 µM [rising, single point]. Also, the AC50 under setting [1] is 6.51 µM [rising, single point].

Consider `CCCNC(=O)c1ccccc1NC(=O)Nc1ccccc1C`, for which the cell number change was 55.4%. The AC50 under setting [2] is 0.231 µM [rising, full curve]. In addition, the AC50 under setting [1] is 2.31 µM [rising, partial curve, poor fit].

As for `Cn1c(=O)c2c3c(sc2n2c(SCc4ccc5c(c4)OCO5)nnc12)COC(C)(C)C3`, the cell number change was -1.91%. Also, under setting [1], the AC50 was 0.0184 µM [rising, full curve, poor fit].

On to `CC1CCCN(C(=O)c2ccc3c(c2)C(=O)N(CCC2=CCCCC2)C3=O)C1` (stereo not drawn), for which, under setting [1], the AC50 was 29.1 µM [falling, single point].

With `O=C(O)CCN1C(=O)c2ccc(Oc3ccc4c(c3)C(=O)N(CCC(=O)O)C4=O)cc2C1=O`, the cell number change was 6.38%.

`CC1CN(Cc2cnc(Cl)s2)CC(C)O1` (stereo not drawn): the cell number change was -20.1%. Besides, the AC50 under setting [1] was 35.5 µM [falling, single point].

Take `Cc1ccc(C2(C)NC(=O)N(CC(=O)Nc3ccc(S(=O)(=O)Nc4nccs4)cc3)C2=O)cc1` (stereo not drawn): the cell number change is -41.3%. Moreover, the AC50 under setting [2] was 5.8 µM [falling, partial curve]. In addition, the AC50 under setting [1] is 6.51 µM [falling, partial curve].

On to `Cn1cc(CCC(=O)NCCCc2ccccc2)c2ccccc21`, for which the cell number change worked out at 24.6%. For the same compound, the AC50 under setting [2] was 1.64 µM [rising, full curve, poor fit]. Also, the AC50 under setting [1] was 3.66 µM [rising, single point].

Consider `CCN(CCn1cccn1)C(=O)c1ccc2nc(Cc3ccc(OC)cc3)oc2c1`, for which the cell number change is -6.12%. Besides, under setting [1], the AC50 was 0.103 µM [falling, full curve, poor fit].

As to `COc1ccccc1C(=O)NC(=O)CSc1nncn1C`, the cell number change was -23.9%.

`Cc1ccc(/C=C2\SC(=O)N(CCC(=O)N3CCN(C)CC3)C2=O)cc1`: the cell number change is -4.5%. Further, under setting [1], the AC50 is 0.13 µM [falling, full curve, poor fit].

In the case of `NC(=O)COC(=O)CSc1ccc2ccccc2c1`, the cell number change is -45.6%. Besides, the AC50 under setting [2] is 6.51 µM [rising, single point].

As to `Cc1ccc(NC(=O)COC(=O)c2ccc(S(=O)(=O)N3CCCC3)cc2)cc1`, the cell number change was -13.7%.

In the case of `CC(=O)Oc1ccc(Cl)cc1/C=C/c1ccc2ccccc2n1`, the cell number change was -25.5%. The AC50 under setting [1] was 20.6 µM [falling, single point].

In the case of `CC(=O)NCC(=O)N(c1c(C)n(C)n(-c2ccccc2)c1=O)C1(C(=O)NC2CCCC2)CCCCC1`, under setting [1], the AC50 was 5.8 µM [falling, full curve].

Regarding `Cc1ccc(S(=O)(=O)Nc2c(C)n(C)n(-c3ccccc3)c2=O)cc1`, the cell number change was 7.84% and -33.3%. In addition, the AC50 under setting [2] is 6.51 µM [falling, partial curve]. For the same compound, the AC50 under setting [1] is 580 nM [falling, single point] and 6.51 µM [falling, single point].

In the case of `O=C1NCCN/C1=C\C(=O)c1ccc(Br)cc1`, the cell number change was -20.7%.

As for `Nc1nc(Br)c2c(F)cccc2c1-c1ccccc1`, the cell number change is 23%. The AC50 under setting [2] was 0.731 µM [rising, full curve, poor fit].

Take `CCCCn1c(N)c(N(CC(C)C)C(=O)CN(C)S(=O)(=O)c2ccc(NC(C)=O)cc2)c(=O)[nH]c1=O`: the cell number change was determined as 10.3%. Further, the AC50 under setting [1] was 29.1 µM [falling, single point].

One may read the AC50 as the concentration giving half of the maximal activity seen. Read a high AC50 as weaker potency.
